Consider 42 sequences from PMC7819943, “Rice protein-binding microarrays: a tool to detect cis-acting elements near promoter regions in rice”.

Sequences of proteins named here, by UniProt entry; tags and fusion partners are left off.
UniProt Q0JBA9, entry or part of it: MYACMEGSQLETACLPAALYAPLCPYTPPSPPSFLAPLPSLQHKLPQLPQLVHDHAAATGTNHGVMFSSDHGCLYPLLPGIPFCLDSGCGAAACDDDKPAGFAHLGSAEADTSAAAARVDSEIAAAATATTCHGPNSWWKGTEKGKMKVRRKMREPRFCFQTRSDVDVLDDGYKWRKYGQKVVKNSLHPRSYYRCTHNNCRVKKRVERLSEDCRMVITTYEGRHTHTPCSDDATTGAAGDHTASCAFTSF

Some of the results follow.

This assay has as its target OsWRKY34 (Oryza sativa, UniProt Q0JBA9 1-250). The assay can be described thus: protein-binding microarray (RPBM); PBS, 2% BSA, 51.3 ng/ul salmon testes DNA, 50 uM zinc acetate, 200 nM TF, 25 C, 1 h; high values mean tight binding. Particulars: protein: recombinant; tags: N-terminal polyhistidine and DsRed monomer fusion (pET32a); label: CyDye5-dUTP incorporated in the synthesized complementary strand; 3' TTTTT single-stranded linker to array surface; dsDNA, one strand shown. Summed up:
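Using Ni–NTA, transcription factors fused N-terminally to polyhistidine and DsRed were purified after expression in E. coli BL21-CodonPlus. These were incubated at 200 nM with a blocked, double-stranded custom Agilent array for 1 h at 25 °C in a buffer containing 50 µM zinc acetate, and the array was washed. The binding signal is per-feature fluorescence intensity (arbitrary units) on an Axon 4000B scanner.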
For “GCCAATTGTAACAGCATTTCATTACTTACCCCGTTCTATACGGAGTCACCTAGTGCAG”, the binding signal was 9620 fluorescence intensity (a.u.).
To “CCAACCCAAACCCCGTCGTCTCCTCTCCCGCTCGCTGTCCCGGAGTCACCTAGTGCAG” belongs 9000 fluorescence intensity (a.u.); to “TTATCTCCTAGCTCCTCATCTAGCTTTCGTTGAGTTGACTCGGAGTCACCTAGTGCAG”, 8020 fluorescence intensity (a.u.); to “GTTGCTTGTGCTTTGGTGTGTTTTGTTGTTGGTAGCCATGCGGAGTCACCTAGTGCAG”, 11000 fluorescence intensity (a.u.).
To “TATGACAGTCGTCTTCCCCACACCCGGTGGACCGATGAGCCGGAGTCACCTAGTGCAG” belongs 8030 fluorescence intensity (a.u.); to “GGGAGCTTGAATACTGTGTAGGTTTTATTTTCTTTATATGCGGAGTCACCTAGTGCAG”, 8450 fluorescence intensity (a.u.).
To “TCTACCTCCGCCGCACGTGCCGCATCTTCCGCCGCCTCTGCGGAGTCACCTAGTGCAG” belongs 8220 fluorescence intensity (a.u.).
Consider “ATATAGTTTATCAGTGGCTGCGTTTGGCTACACTAGTTACCGGAGTCACCTAGTGCAG”, for which the binding signal was 8110 fluorescence intensity (a.u.).
For the sequence “AACCGTCCAAGCACACACTACCGACCACCGCTGCTGTTTTCGGAGTCACCTAGTGCAG”, the binding signal is 9970 fluorescence intensity (a.u.).
For the sequence “TTAGTACTGTGATACGATGTCTTTCAGTTGTATCGAGTCTCGGAGTCACCTAGTGCAG”, the binding signal is 9420 fluorescence intensity (a.u.).
With “TTTGTGTGTGTGGTTATGGTTCTTCGCCTATTCATCAACCCGGAGTCACCTAGTGCAG”, the binding signal is 9530 fluorescence intensity (a.u.).
For “CTCACATTCACCACGAGGTTTCTGCTGCTGGTTTGTCTGACGGAGTCACCTAGTGCAG”, the binding signal was 9300 fluorescence intensity (a.u.).
Under “GCCACACCTCCCATTCCTTAGCCAAACACTCGCACTACTCCGGAGTCACCTAGTGCAG” stands 8690 fluorescence intensity (a.u.).
To “GCTGGGACTTGGGAGTTGGGATGGATTAGGTTTCGATGTTCGGAGTCACCTAGTGCAG” belongs 8420 fluorescence intensity (a.u.); to “AGGTAATTTTTTCTGGGCCTGTATTCTTTTTCTAGGTTCACGGAGTCACCTAGTGCAG”, 11200 fluorescence intensity (a.u.); to “TGCTCACGTCCGCGCTTGCCTTGCTGTTAGCACTTGCCTCCGGAGTCACCTAGTGCAG”, 8730 fluorescence intensity (a.u.).
Take “GTTCCAGCTTCATGCATGCACACACACAGTAGCTCGTGCTCGGAGTCACCTAGTGCAG”: the binding signal was 29300 fluorescence intensity (a.u.).
Consider “GTTCCTCCACGATTTCTTTTATCCATCTTCTTCTTCTTTCCGGAGTCACCTAGTGCAG”, for which the binding signal is 9150 fluorescence intensity (a.u.).
Under “ACATCAAACTTTCCTACACACATAAACTTTCAACTTTTCCCGGAGTCACCTAGTGCAG” stands 8910 fluorescence intensity (a.u.); under “TAAAATTCCTTGCAGTCATGGTCATCCTCTCCTACACCAGCGGAGTCACCTAGTGCAG”, 8770 fluorescence intensity (a.u.).
To “ATGGATTTCGATGGTGTTTCACACTTTTTGTCTTTGATGCCGGAGTCACCTAGTGCAG” belongs 9000 fluorescence intensity (a.u.); to “CGATCCACCGCCTCCATCGTCCCTTGCATCCACGCCGTCGCGGAGTCACCTAGTGCAG”, 11600 fluorescence intensity (a.u.).
With “CAGCTTCATACTCCGGGTAACATTCCTTATCTAGCCAAAGCGGAGTCACCTAGTGCAG”, the binding signal is 8480 fluorescence intensity (a.u.).
To “ACCTACTCACAATCACAGAATCACATCATAACATTATTGTCGGAGTCACCTAGTGCAG” belongs 9160 fluorescence intensity (a.u.); to “GAGTCAACTCTCTCTGTCGTCATCTTCTTCGTGTGTGCAGCGGAGTCACCTAGTGCAG”, 8320 fluorescence intensity (a.u.).
To “GCACTATCCTACTCGGCTAGTATTCTCCTTTCCGTCTCCCCGGAGTCACCTAGTGCAG” belongs 10300 fluorescence intensity (a.u.).
Under “CTGGTCACTAAGACTGTGTTCTCTCTCCGGCACACAAAACCGGAGTCACCTAGTGCAG” stands 8750 fluorescence intensity (a.u.).
Take “AGGTATATGATAAAATTGAATGGTGGAGGGTTGTGATTGGCGGAGTCACCTAGTGCAG”: the binding signal is 8320 fluorescence intensity (a.u.).
To “GTGGGTTGGGCCAAAGAAAGGTAGGCTGAGTGGAGGGATGCGGAGTCACCTAGTGCAG” belongs 10400 fluorescence intensity (a.u.).
Under “CCCGTCCAGCATTTTGTGTCTTGTCATCCTCGCCACCTCACGGAGTCACCTAGTGCAG” stands 9270 fluorescence intensity (a.u.); under “GGATTCTCTCTTCGGTTTGCACGTGGTTCTCTGCTGATAACGGAGTCACCTAGTGCAG”, 9300 fluorescence intensity (a.u.); under “TCTCACATGTAATGGTATTTCTAACCGGTGCATCTTTATACGGAGTCACCTAGTGCAG”, 8160 fluorescence intensity (a.u.).
Consider “AAGAAGGTGAGCTATTGGTTATGTTGATGTATTCATTATACGGAGTCACCTAGTGCAG”, for which the binding signal is 9760 fluorescence intensity (a.u.).
To “TTTGCCATTTGAGCATTTTTCTTCCTTTATTTTGTTAATACGGAGTCACCTAGTGCAG” belongs 8790 fluorescence intensity (a.u.); to “CAGGGCCATGTTCGCTGATACATTGTGTTGGATTGCACTGCGGAGTCACCTAGTGCAG”, 8030 fluorescence intensity (a.u.); to “AGTCCGTGCACATCTACCTCCGCCGCGACGACGCCGCCGTCGGAGTCACCTAGTGCAG”, 8150 fluorescence intensity (a.u.).
Under “GGGCACTGGTGTGTGTGTATATTTCTTTTTTCTGAAGACTCGGAGTCACCTAGTGCAG” stands 13800 fluorescence intensity (a.u.); under “CTTTTTTTACGGTAGACGGAAACCCTTTTATAGCACTTTTCGGAGTCACCTAGTGCAG”, 8410 fluorescence intensity (a.u.).
Under “ATATGGACCTATACTCTATTTCTAATATTCCTTATTTTTACGGAGTCACCTAGTGCAG” stands 10200 fluorescence intensity (a.u.).
As to “GCCACACCCACACTGACACACATATACAAGCCAGAGAGATCGGAGTCACCTAGTGCAG”, the binding signal is 8850 fluorescence intensity (a.u.).
Under “CAACTGCATAGGATCCTGATCCCTGCCTTTGCATTGTCTTCGGAGTCACCTAGTGCAG” stands 8190 fluorescence intensity (a.u.); under “TAAACTACCTACTACTTGACCACCTCTCCGTCTCTCTTCCCGGAGTCACCTAGTGCAG”, 9150 fluorescence intensity (a.u.).
